Patent US20240110200A1, “Recombinant AAV Vectors and Gene Therapies for Treating Brain Diseases” (City University of Hong Kong, priority 2022, published 2024)
Results are given in words; binding and its absence hold for the method and conditions named. Some results given as binding are weak or reduced against the parent protein; the word gives no strength.

Amino acid sequences for entries named in this document (tags omitted). A change or cut given only in a name is not applied to a line headed by its entry.
UniProt Q9NS66: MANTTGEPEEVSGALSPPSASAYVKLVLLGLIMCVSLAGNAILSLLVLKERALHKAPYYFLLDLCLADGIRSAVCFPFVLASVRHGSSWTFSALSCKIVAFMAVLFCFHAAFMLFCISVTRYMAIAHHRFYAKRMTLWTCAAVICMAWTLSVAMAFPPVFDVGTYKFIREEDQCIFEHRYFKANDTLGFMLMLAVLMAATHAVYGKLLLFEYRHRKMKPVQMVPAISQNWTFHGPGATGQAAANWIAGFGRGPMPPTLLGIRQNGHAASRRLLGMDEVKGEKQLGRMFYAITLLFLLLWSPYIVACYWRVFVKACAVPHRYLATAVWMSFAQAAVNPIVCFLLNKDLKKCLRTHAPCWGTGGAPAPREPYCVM
UniProt P06307: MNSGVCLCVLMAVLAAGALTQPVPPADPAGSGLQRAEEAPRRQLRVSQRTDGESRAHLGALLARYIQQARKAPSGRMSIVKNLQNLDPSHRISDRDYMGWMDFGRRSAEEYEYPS

Columns and labels:
[1] = target: Flag-GPR173 on transfected HEK293T cells (UniProt Q9NS66); assay: cell surface binding assay on transfected HEK293T cells (FIG. 4B)
[2] = target: Flag-GPR173 on transfected HEK293T cells (UniProt Q9NS66); assay: competitive membrane surface labelling assay on Flag-GPR173 HEK293T cells, competitor HA2A8s

binding [1]: binds | binding [2]: binds
Substance: sulphated CCK8 (CCK8s) (from UniProt P06307 96-103) (peptide)
